We go through 55 compounds from PubChem BioAssay AID1487 (National Center for Advancing Translational Sciences (NCATS), 2009).

This experiment is described as follows: qHTS Assay for Modulators of Lamin A Splicing. As to conditions: HeLa LMNA splicing GFP/RFP minigene ratio, 48 h. An outline of the steps:
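Read-out is the ratio of GFP to DsRed2 object intensity, acquired by 488 nm laser-scanning cytometry on HeLa lamin A-EGFP minigene reporter cells. Compound incubation 48 hrs at 37 °C in Opti-MEM with 2% FBS; DMSO 0.5% final.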
For orientation: qHTS replaces the single test concentration by a dilution series.

The mark [1] stands for this setting: measured here: GFP splicing reporter channel.
Where [2] appears, read: measured here: RFP viability control channel.

This is one part of the list. Shown are side measurements of this screen, not its main read-out; they come without a call. Compounds called inactive in the main read-out are mostly missing here. Potencies come from curve fits of mixed quality, noted in brackets.

Regarding `COc1cc(Nc2nc(SCc3cccc(Cl)c3)nc3ccccc23)cc(OC)c1`, the AC50 reads like this: under setting [1], 3.55 µM [rising, full curve, poor fit]; under setting [2], 3.55 µM [rising, full curve, poor fit].
Regarding `COc1cccc2c1[C@@H]1CN(CCCCn3c(=O)[nH]c4c(sc5ncc(-c6ccccc6)nc54)c3=O)C[C@@H]1CO2`, the AC50 reads like this: under setting [1], 15.8 µM [falling, partial curve]; under setting [2], 17.8 µM [falling, single point].
For `O=C(Nc1nnc(-c2ccc3c(c2)CCCC3)o1)c1ccc(Cl)cc1Cl`, the AC50 under setting [1] was 10 µM [rising, partial curve] and the AC50 under setting [2] was 12.6 µM [rising, partial curve].
`CSc1nc2ccccc2n1CC(=O)Nc1ccccc1`: the AC50 under setting [2] was 11.2 µM [rising, partial curve, poor fit].
Consider `Cc1nn(-c2ccccc2)c(Cl)c1C1C(C#N)=C(N)OC2=C1C(=O)CC(C)(C)C2` (stereo not given), for which the AC50 under setting [2] is 15.8 µM [rising, single point].
As for `Cc1ccccc1C(=O)NC1CC2CCC(C1)N2Cc1ccccc1` (stereo not given), the AC50 under setting [1] is 0.501 µM [rising, full curve, poor fit].
Regarding `COc1ccc(NC(=O)CC2CC3CCC2C3)cn1` (stereo not given), under setting [2], the AC50 was 3.98 µM [rising, single point].
As to `Cc1cc(C(=O)CN2C(=O)NC3(CCCCC3)C2=O)c(C)n1Cc1ccc2c(c1)OCO2`, the AC50 under setting [1] is 22.4 µM [rising, partial curve] and the AC50 under setting [2] was 25.1 µM [rising, partial curve].
Consider `C/C(CCc1oc2ccc(Cl)cc2c1-c1ccc(C)o1)=N\O`, for which the AC50 under setting [2] is 12.6 µM [rising, single point].
As for `Cc1[nH]c2ccccc2c1C(O)CN1CCN(c2cccc(C(F)(F)F)c2)CC1` (stereo not given), under setting [2], the AC50 was 31.6 µM [rising, single point].
On the same count and under the same terms, the same measure for `Cc1[nH]c2ccccc2c1C(C[N+](=O)[O-])c1cccs1` (stereo not given): 22.4 µM [rising, single point].
On to `Cc1ccc(C(=O)CSC2=NC(N)=C(C#N)C3(CCCCC3)C2C(N)=O)cc1` (stereo not given), for which the AC50 under setting [1] is 14.1 µM [rising, single point].
On to `COc1cccc(/C=N/c2oc(-c3ccccc3)cc2C#N)c1O`, for which the AC50 under setting [2] is 35.5 µM [rising, single point].
`O=C(CN(Cc1ccccc1)S(=O)(=O)c1ccc2c(c1)OCCO2)Nc1ccc2c(c1)OCCO2`: the AC50 under setting [2] was 22.4 µM [rising, single point].
For `Cc1ccccc1NC(=O)Nc1ccc2nc(N3CCN(C)CC3)cc(C)c2c1`, the AC50 under setting [1] is 7.08 µM [falling, full curve, poor fit].
In the case of `CC(C)CCn1c(CN(C)Cc2ccccc2)nc2c1c(=O)n(C)c(=O)n2C`, the half-maximal activity concentration (AC50) under setting [2] was 25.1 µM [rising, partial curve].
Take `CC(=O)Oc1ccc(C)cc1`: the AC50 is 12.6 µM [falling, partial curve, poor fit] under setting [1] and 12.6 µM [falling, single point] under setting [2].
In the case of `Cc1ccc([N+](=O)[O-])cc1-c1ccc(/C=C(\C#N)c2[nH]nc(N)c2C#N)o1`, the AC50 under setting [2] is 0.501 µM [rising, full curve, poor fit].
Regarding `C/C(=N\NC(=O)c1ccc(O)cc1)c1ccc2c(c1)Nc1ccccc1S2`, the AC50 under setting [1] is 35.5 µM [falling, single point] and the AC50 under setting [2] was 25.1 µM [falling, single point].
For `Cc1ccc(Cl)cc1OCC(=O)NCCOC(=O)Nc1sc(=S)n(C)c1C`, the AC50 under setting [2] was 20 µM [rising, single point].
Same read-out and setting: under `CC(C)OC(=O)c1c(NC(=O)CCC(=O)O)sc2c1CCCCC2` stands 14.1 µM [rising, single point].
Turning to `c1ccc2[nH]c(SCc3ccc(-c4nnco4)cc3)nc2c1`, the AC50 reads like this: under setting [1], 8.91 µM [rising, partial curve]; under setting [2], 14.1 µM [rising, single point].
For the compound `Cc1nc2ccccc2n1CCN1CCOCC1`, the AC50 under setting [2] is 0.562 µM [falling, full curve].
Same read-out and setting: the same measure for `COc1ccc(N2CCN(CC(=O)Nc3ccc(SC(F)F)cc3)CC2)cc1`: 15.8 µM [rising, partial curve].
`COC(=O)c1sccc1S(=O)(=O)N(CC(=O)NCc1ccccc1)c1ccc(C)c(C)c1`: the AC50 by setting is: under setting [1], 0.0112 µM [falling, full curve, poor fit]; under setting [2], 0.00355 µM [falling, full curve, poor fit].
On to `Cc1ccc(-n2c3nc(=O)[nH]c(=O)c-3cc3cc([N+](=O)[O-])ccc32)cc1C`, for which the AC50 is 35.5 µM [falling, single point] under setting [1] and 0.178 µM [rising, full curve, poor fit] under setting [2].
For the compound `CSc1nsc(/C=C/Nc2ccc(C)c(C)c2)c1C#N`, the AC50 under setting [1] was 0.891 µM [falling, full curve, poor fit].
Take `CCn1cc(C(=O)O)c(=O)c2cc(S(=O)(=O)N(C)C)ccc21`: the AC50 under setting [2] is 5.62 µM [rising, single point].
Consider `CCc1ccc(CNC(=O)C2CCCN(c3nn4cc(-c5ccc(F)cc5)nc4s3)C2)cc1` (stereo not given), for which the AC50 under setting [2] was 35.5 µM [falling, single point].
For the compound `COc1ccc(C(=O)C2CCCN(S(=O)(=O)c3cccnc3)C2)c(C)c1` (stereo not given), the AC50 is, setting by setting: under setting [1], 0.00316 µM [rising, full curve, poor fit]; under setting [2], 0.00316 µM [rising, full curve, poor fit].
As to `O=C(COC(=O)CC(c1ccccc1)c1ccccc1)NCc1ccc(Cl)cc1`, the AC50 under setting [1] is 35.5 µM [rising, single point] and the AC50 under setting [2] was 35.5 µM [rising, single point].
Take `O/N=C/c1ccc(OCc2ccccc2)c(Br)c1`: under setting [1], the AC50 is 4.47 µM [falling, partial curve, poor fit].
For `CC(=O)c1c(N2CCN(c3ccc(F)cc3)CC2)nc(=S)n(Cc2ccccc2)c1C`, the AC50 is 10 µM [rising, partial curve, poor fit] under setting [1] and 17.8 µM [rising, partial curve] under setting [2].
For `CCOc1ccc(NC(=S)NCCN2CCN(Cc3ccccc3)CC2)cc1`, under setting [2], the AC50 is 35.5 µM [falling, single point].
With `Cc1ccc(-c2nnc(OCCN3CCOCC3)c3ccccc23)cc1`, the AC50 under setting [2] was 8.91 µM [rising, partial curve, poor fit].
On to `COc1ccccc1/C=C/C=C1\Oc2c(ccc(O)c2CN2CCN(CCO)CC2)C1=O`, for which the AC50 under setting [1] is 35.5 µM [rising, single point].
For `CC1CCN(C(=O)CSc2nc3c([nH]c4ccccc43)c(=O)n2-c2ccccc2)CC1`, the concentration at half-maximal activity (AC50) is 0.112 µM [rising, full curve, poor fit] under setting [1] and 1.78 µM [rising, partial curve, poor fit] under setting [2].
Consider `CCOc1ccc(C2=Nn3cnnc3SC2)cc1`, for which the AC50 under setting [1] was 20 µM [rising, partial curve, poor fit].
Consider `O=C(CN1CCN(c2ccc(Cl)cc2)CC1)Nc1ccc(Cl)c(C(F)(F)F)c1`, for which the AC50 under setting [2] is 35.5 µM [rising, single point].
Turning to `COCc1nnc(NC(=O)c2ccc(S(=O)(=O)N(CC(C)C)CC(C)C)cc2)o1`, under setting [2], the AC50 is 3.55 µM [rising, single point].
For the compound `C=C1C(=O)O[C@@H]2[C@@H]1CC/C(C)=C\CC[C@@]1(C)O[C@H]21`, the AC50 was 0.158 µM [falling, full curve] under setting [1] and 0.251 µM [falling, full curve] under setting [2].
On to `NC(=O)c1cnn(-c2ccc3ccccc3c2)c1N`, for which the AC50 was 1.41 µM [falling, full curve] under setting [1] and 2 µM [falling, full curve, poor fit] under setting [2].
Consider `CC1(C)C(=O)Nc2ccccc2N1C(=O)CSc1nc(-c2ccccc2)cs1`, for which the AC50 under setting [1] was 11.2 µM [rising, single point] and the AC50 under setting [2] was 11.2 µM [rising, partial curve].
Take `COc1ccc(C(=O)CC(Nc2ccc([N+](=O)[O-])cc2)c2ccc(OC)cc2)cc1` (stereo not given): the AC50 under setting [2] is 11.2 µM [rising, partial curve].
Consider `Cc1nnc(SC(C)C(=O)Nc2nccs2)s1` (stereo not given), for which, under setting [2], the AC50 was 0.00355 µM [falling, full curve, poor fit].
With `Cc1cccc(/C=C/C(=O)c2ccc(N3CCOCC3)cc2)c1`, the AC50 under setting [1] is 0.562 µM [rising, single point].
Regarding `Cc1ccc(S(=O)(=O)N(C)CCCC(=O)Nc2ccncc2)cc1`, under setting [2], the half-maximal activity concentration (AC50) was 12.6 µM [rising, single point].
With `COCCSc1ccccc1C(=O)Nc1ccccc1C(C)C`, the AC50 is 35.5 µM [rising, single point] under setting [1] and 35.5 µM [rising, single point] under setting [2].
As to `Cc1ccccc1C(=O)N1CCN(c2ccc(NC(=O)c3cccnc3Cl)cc2)CC1`, the AC50 reads like this: under setting [1], 11.2 µM [falling, partial curve, poor fit]; under setting [2], 15.8 µM [falling, partial curve, poor fit].
In the case of `O=C(/C=C\c1ccc2c(c1)OCO2)NC1CC(=O)N(c2ccc(F)cc2)C1` (stereo not given), the AC50 under setting [2] is 14.1 µM [rising, single point].
On to `S=C(NCc1ccco1)Nc1ccccn1`, for which, under setting [1], the AC50 was 1.12 µM [falling, single point].
Regarding `CCn1c(SCC(=O)N2CCCc3ccccc32)nc2ccccc2c1=O`, the AC50 runs as follows: under setting [1], 17.8 µM [rising, single point]; under setting [2], 35.5 µM [rising, single point].
For the compound `CC(C)(C)c1ccc(C(=O)Nc2cc(-c3ccccc3)nn2-c2ccccc2)cc1`, the AC50 was 22.4 µM [rising, partial curve, poor fit] under setting [1] and 35.5 µM [rising, single point] under setting [2].
`CC1CCN(S(=O)(=O)c2cc(C(=O)NCCc3ccccc3)n(C)c2)CC1`: the AC50 under setting [1] was 4.47 µM [falling, partial curve, poor fit].
Still for that read-out and setting: the same measure for `CSc1nc(-c2ccccc2)nc(N2CCCC2)c1C(C)=O`: 8.91 µM [rising, partial curve, poor fit].

As usually defined, the AC50 is the midpoint of the concentration-response curve, whichever way the signal moves.
